Results deposited as PubChem BioAssay AID1259254 (NCATS, 2017)

- Test: 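Genome-wide screen for genes that prevent DNA re-replication in cancer cells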 (primary screen)
- Cell system: human HCT116 colorectal cancer cells
- Reagent: single siRNA against human genes
- Duration: 3 days
- Read-out: 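Nuclei stained with Hoechst and imaged; cell-cycle phase assigned by DNA content; G2 share scaled per plate, non-targeting siRNA 0%, GMNN siRNA 100%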
- Scale: G2 robust z-score: higher = more G2 cells, more excess DNA replication
- Rule for the call: 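Active siRNAs have a G2 robust z of 5 or more median absolute deviations over the median, which in these data means about 38% or higher of GMNN control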
The whole screen tested about 59,000 reagents; this is a random part of them. Over the whole deposit, about 1,550 (2.6%) are marked active. 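G2 share is only a proxy for re-replication; each gene was hit by three separate siRNAs, and active genes were retested.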 The numbers tell different reagents against one gene apart. Not all columns of the deposit are shown. Reagent sequences are not shown. Not given: the amount of reagent.

| gene | reagent | G2 robust z-score | outcome |
| --- | --- | --- | --- |
| TRDN | 1 | -0.691 | inactive |
| TRDN | 2 | -0.113 | inactive |
| TRDN | 3 | 4.23 | inactive |
| GOLPH3 | 1 | -0.179 | inactive |
| GOLPH3 | 2 | 3.79 | inactive |
| GOLPH3 | 3 | -0.698 | inactive |
| ANKRD49 | 1 | 0.597 | inactive |
| ANKRD49 | 2 | 0.0291 | inactive |
| ANKRD49 | 3 | -0.326 | inactive |
| PDCL3 | 1 | 0.107 | inactive |
| PDCL3 | 2 | -0.719 | inactive |
| PDCL3 | 3 | 2.82 | inactive |
| MBTPS2 | 1 | -1.29 | inactive |
| MBTPS2 | 2 | -0.238 | inactive |
| MBTPS2 | 3 | 0.152 | inactive |
| IFNL2 | 1 | -0.0393 | inactive |
| IFNL2 | 2 | 1.99 | inactive |
| IFNL2 | 3 | -0.105 | inactive |
| CCDC97 | 1 | 1.34 | inactive |
| CCDC97 | 2 | -0.492 | inactive |
| CCDC97 | 3 | -0.268 | inactive |
| PNMA1 | 1 | -0.524 | inactive |
| PNMA1 | 2 | -0.743 | inactive |
| PNMA1 | 3 | -0.0854 | inactive |
| SLC2A8 | 1 | -0.237 | inactive |
| SLC2A8 | 2 | 0.181 | inactive |
| SLC2A8 | 3 | -0.246 | inactive |
| GCN1 | 1 | 0.437 | inactive |
| GCN1 | 2 | 2.84 | inactive |
| GCN1 | 3 | 0.165 | inactive |
| SHISAL2A | 1 | 2.08 | inactive |
| SHISAL2A | 2 | 0.978 | inactive |
| SHISAL2A | 3 | 2.03 | inactive |
| P2RY1 | 1 | 6.98 | active |
| P2RY1 | 2 | -0.0825 | inactive |
| P2RY1 | 3 | 1.19 | inactive |
| EMP1 | 1 | 2.02 | inactive |
| EMP1 | 2 | 0.219 | inactive |
| EMP1 | 3 | 0.334 | inactive |
| UBAP1L | 1 | -0.431 | inactive |
| UBAP1L | 2 | -0.233 | inactive |
| UBAP1L | 3 | -0.934 | inactive |
| SAMSN1 | 1 | 1.34 | inactive |
| SAMSN1 | 2 | -0.23 | inactive |
| SAMSN1 | 3 | 0.88 | inactive |
| SAMSN1 | 4 | -1.33 | inactive |
| SAMSN1 | 5 | 5.82 | active |
| SAMSN1 | 6 | -0.352 | inactive |

Reformatted: 6 of the entries above
gene | reagent | G2 robust z-score | outcome
MBTPS2 | 3 | 0.152 | inactive
IFNL2 | 1 | -0.0393 | inactive
IFNL2 | 2 | 1.99 | inactive
IFNL2 | 3 | -0.105 | inactive
CCDC97 | 1 | 1.34 | inactive
CCDC97 | 2 | -0.492 | inactive
